Laboratory results reported in patent US20110118199A1, “USE OF CNS PENETRATING ANTICANCER COMPOUNDS FOR THE TREATMENT OF PROTOZOAL DISEASES” (priority 2006, published 2011).
For at least one compound, name, drawing or mass did not settle the structure. Marks after values point to notes of the source that are not given here.

Legend:
[1] = test system: Trypanosoma brucei rhodesiense (STIB 900 clone); assay: Sleeping sickness acute mouse model, T. b. rhodesiense STIB900; assay type: in vivo, mice (NMRI); settings: 4 × 20 mg/kg p.o.; determined on day 18
Procedure: Sleeping Sickness: Acute Model—Trypanosome b. rhodesiense STIB900 Parasite and Animal Strains Trypanosoma brucei rhodesiense STIB900 is used for this model. Female mice (NMRI), weighing 20-25 g, are maintained at 22° C. and 70% relative humidity.
(§1) Standard drugs as positive controls are Melarsoprol (Arsobal®, Specia, France) and Diminazene aceturate (Berenil®, Hoechst, Germany). Stock solutions of all test items were prepared in DMSO.

[2] = test system: Trypanosoma brucei brucei STIB795; assay: Sleeping sickness acute mouse model, T. b. brucei STIB795; assay type: in vivo, mice (NMRI); settings: ip injection, four consecutive days, daily doses of 50 mg/kg; T. b. brucei STIB795 infected mice
Procedure: Trypanosoma brucei brucei STIB795 is used for this model. Female mice (NMRI), weighing 20-25 g, are maintained at 22° C. and 70% relative humidity.
as §1

## Cn1nnc2c(C(N)=O)ncn2c1=O [Temozolomide]
[1]
  Cured/Infected: 0/4*
[2]
  survival and parasitaemia of treated animals: All of the treated animals survived and were parasite free even after 60 days
